Assay [1] addresses T1, flotillin-2 (human (endogenous in HaCaT)) (UniProt Q14254).
T1 sequence: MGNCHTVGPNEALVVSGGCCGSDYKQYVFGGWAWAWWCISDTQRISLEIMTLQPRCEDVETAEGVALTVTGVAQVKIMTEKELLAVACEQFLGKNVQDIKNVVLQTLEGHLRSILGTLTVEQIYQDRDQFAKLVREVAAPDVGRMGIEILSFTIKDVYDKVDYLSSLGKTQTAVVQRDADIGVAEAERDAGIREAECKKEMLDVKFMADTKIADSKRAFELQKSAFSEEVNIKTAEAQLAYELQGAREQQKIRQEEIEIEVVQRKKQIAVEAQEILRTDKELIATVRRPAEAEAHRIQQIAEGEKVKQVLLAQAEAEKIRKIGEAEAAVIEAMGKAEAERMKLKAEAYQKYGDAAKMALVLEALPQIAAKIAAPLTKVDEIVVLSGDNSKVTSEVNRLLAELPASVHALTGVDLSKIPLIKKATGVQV
Kind of assay: co-IP; antibodies against endogenous flotillin-1 or flotillin-2; confluent HaCaT cells, 1 mg of lysate (50 mM Tris pH 7.4, 150 mM NaCl, 2 mM EDTA, 1% NP-40); Western blot for Dsg1-3; anti-c-myc as negative control.

Chains of the proteins cited; added tags and fusions are not shown. Lines headed by an entry give the natural chain unless they say otherwise; changes in a name come on top. Residues count along the entry.
UniProt Q02413: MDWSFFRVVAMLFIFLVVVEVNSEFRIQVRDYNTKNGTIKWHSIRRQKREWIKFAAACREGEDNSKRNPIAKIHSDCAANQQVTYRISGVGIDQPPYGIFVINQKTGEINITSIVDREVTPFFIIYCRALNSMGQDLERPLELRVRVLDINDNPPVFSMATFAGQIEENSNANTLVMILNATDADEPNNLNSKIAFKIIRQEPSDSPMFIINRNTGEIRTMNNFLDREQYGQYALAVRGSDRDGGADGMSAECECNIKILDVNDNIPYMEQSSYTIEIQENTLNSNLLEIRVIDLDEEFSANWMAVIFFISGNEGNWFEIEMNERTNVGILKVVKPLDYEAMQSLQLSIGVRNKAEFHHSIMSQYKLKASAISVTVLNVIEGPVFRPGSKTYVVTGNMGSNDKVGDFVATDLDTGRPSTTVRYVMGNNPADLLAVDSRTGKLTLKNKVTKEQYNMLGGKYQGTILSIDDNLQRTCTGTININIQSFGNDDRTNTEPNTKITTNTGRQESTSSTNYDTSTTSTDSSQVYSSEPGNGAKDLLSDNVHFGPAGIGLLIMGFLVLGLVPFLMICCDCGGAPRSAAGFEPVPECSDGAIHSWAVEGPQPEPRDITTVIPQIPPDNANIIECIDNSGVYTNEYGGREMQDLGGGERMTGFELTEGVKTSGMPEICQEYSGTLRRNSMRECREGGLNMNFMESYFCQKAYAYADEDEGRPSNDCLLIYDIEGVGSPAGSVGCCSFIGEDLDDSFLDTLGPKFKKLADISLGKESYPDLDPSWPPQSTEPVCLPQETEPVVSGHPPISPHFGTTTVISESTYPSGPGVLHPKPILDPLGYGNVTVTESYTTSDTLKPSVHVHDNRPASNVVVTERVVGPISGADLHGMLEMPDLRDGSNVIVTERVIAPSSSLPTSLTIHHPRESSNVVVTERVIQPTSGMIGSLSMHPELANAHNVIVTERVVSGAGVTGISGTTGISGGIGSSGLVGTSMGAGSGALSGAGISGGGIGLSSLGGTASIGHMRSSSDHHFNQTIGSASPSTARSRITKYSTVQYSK
GST fusion of the cytoplasmic domain of human desmoglein-1: residues 570-1049 of Q02413

Assay [2] has as its target T2, flotillin-1 (human (endogenous in HaCaT)) (UniProt O75955).
T2 sequence: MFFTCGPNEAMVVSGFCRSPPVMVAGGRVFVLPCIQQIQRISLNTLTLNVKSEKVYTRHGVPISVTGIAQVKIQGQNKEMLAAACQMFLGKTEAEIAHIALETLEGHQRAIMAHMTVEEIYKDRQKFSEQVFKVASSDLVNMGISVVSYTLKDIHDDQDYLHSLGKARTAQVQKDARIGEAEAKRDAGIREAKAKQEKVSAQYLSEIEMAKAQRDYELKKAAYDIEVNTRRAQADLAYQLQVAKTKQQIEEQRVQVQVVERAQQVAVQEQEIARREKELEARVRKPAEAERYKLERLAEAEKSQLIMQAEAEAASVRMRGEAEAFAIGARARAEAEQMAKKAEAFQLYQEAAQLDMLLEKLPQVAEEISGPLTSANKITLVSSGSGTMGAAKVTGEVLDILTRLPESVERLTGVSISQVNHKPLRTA
The description is as above.

Assay [3] addresses GST fusion of the cytoplasmic domain of human desmoglein-1 (human) (UniProt Q02413). The assay can be described thus: pull-down; GST-tagged cytoplasmic domains of Dsg1-3 immobilised on glutathione sepharose, HaCaT lysate (1 mg), overnight at 4 °C; 10 mM Tris-HCl pH 8.0, 150 mM NaCl, 5 mM EDTA, 0.5% Triton X-100, 60 mM N-octylglucoside; Western blot; GST as negative control; only the target purified. (In general: A western blot detects proteins with antibodies after separation by electrophoresis.)

The target in assay [4] is T3, GST fusion of the cytoplasmic domain of human desmoglein-3 (human) (UniProt P32926).
T3 sequence: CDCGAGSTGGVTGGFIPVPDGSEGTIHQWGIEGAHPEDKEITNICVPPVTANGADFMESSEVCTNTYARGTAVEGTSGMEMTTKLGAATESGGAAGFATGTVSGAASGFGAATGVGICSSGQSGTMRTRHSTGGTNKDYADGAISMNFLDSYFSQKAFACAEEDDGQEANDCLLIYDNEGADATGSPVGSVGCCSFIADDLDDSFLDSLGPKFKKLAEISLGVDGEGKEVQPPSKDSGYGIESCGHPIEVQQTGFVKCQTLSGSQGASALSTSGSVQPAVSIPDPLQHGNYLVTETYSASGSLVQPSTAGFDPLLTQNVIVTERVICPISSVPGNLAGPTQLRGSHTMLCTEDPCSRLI
Described as above.

The target of assay [5] is T4, Dsg3-MBP fusion protein (human) (UniProt P32926).
T4 sequence: T3 sequence
Kind of assay: pull-down; Dsg3-MBP (5 μg) immobilised on amylose resin, eluted flotillin-GST proteins in solution; 50 mM Tris-HCl pH 7.5, 150 mM NaCl, 0.01% Triton X-100, 1 mM DTT, 1 mM EDTA, 1% BSA, on ice 2-3 h; Western blot; MBP and GST as controls; both purified.

Where a chain is given by its changes, count along the chain named. Results are given in words; binding and its absence hold for the method and conditions named. For part of these data: Binding seen in cells or lysates may run through a third protein. Some results given as binding are weak or reduced against the parent protein; the word gives no strength. For part of these data: Sequences can lack the tags named with a protein.

Turning to “desmoglein-1 (from UniProt Q02413 50-1049)”, the binding entry in assay [1] and in assay [2] was “binds” throughout.

B1: flotillin-2 (natural protein, human (endogenous in HaCaT), UniProt Q14254 1-428, looked up)
chain: T1 sequence
notes: flotillin-2, endogenous in human HaCaT keratinocytes; also called Flot-2; source: endogenous, HaCaT lysate
Consider B1, for which the binding entry in assay [3] and in assay [4] was “binds” in each case.

B2: flotillin-2-GST fusion (rat, full length) (protein, UniProt Q9Z2S9 1-428)
chain: T1 sequence with A372S, K422N, V426A
Consider B2, for which the binding result in assay [5] was “binds”.

B3: flotillin-1 (natural protein, human (endogenous in HaCaT), UniProt O75955 1-427, looked up)
chain: T2 sequence
notes: flotillin-1, endogenous in human HaCaT keratinocytes; also called Flot-1; source: endogenous, HaCaT lysate
With B3, the binding result in assay [3] and in assay [4] was “binds” throughout.

B4: desmoglein-3 (protein, UniProt P32926 50-999)
chain: EWVKFAKPCREGEDNSKRNPIAKITSDYQATQKITYRISGVGIDQPPFGIFVVDKNTGDINITAIVDREETPSFLITCRALNAQGLDVEKPLILTVKILDINDNPPVFSQQIFMGEIEENSASNSLVMILNATDADEPNHLNSKIAFKIVSQEPAGTPMFLLSRNTGEVRTLTNSLDREQASSYRLVVSGADKDGEGLSTQCECNIKVKDVNDNFPMFRDSQYSARIEENILSSELLRFQVTDLDEEYTDNWLAVYFFTSGNEGNWFEIQTDPRTNEGILKVVKALDYEQLQSVKLSIAVKNKAEFHQSVISRYRVQSTPVTIQVINVREGIAFRPASKTFTVQKGISSKKLVDYILGTYQAIDEDTNKAASNVKYVMGRNDGGYLMIDSKTAEIKFVKNMNRDSTFIVNKTITAEVLAIDEYTGKTSTGTVYVRVPDFNDNCPTAVLEKDAVCSSSPSVVVSARTLNNRYTGPYTFALEDQPVKLPAVWSITTLNATSALLRAQEQIPPGVYHISLVLTDSQNNRCEMPRSLTLEVCQCDNRGICGTSYPTTSPGTRYGRPHSGRLGPAAIGLLLLGLLLLLLAPLLLLTCDCGAGSTGGVTGGFIPVPDGSEGTIHQWGIEGAHPEDKEITNICVPPVTANGADFMESSEVCTNTYARGTAVEGTSGMEMTTKLGAATESGGAAGFATGTVSGAASGFGAATGVGICSSGQSGTMRTRHSTGGTNKDYADGAISMNFLDSYFSQKAFACAEEDDGQEANDCLLIYDNEGADATGSPVGSVGCCSFIADDLDDSFLDSLGPKFKKLAEISLGVDGEGKEVQPPSKDSGYGIESCGHPIEVQQTGFVKCQTLSGSQGASALSTSGSVQPAVSIPDPLQHGNYLVTETYSASGSLVQPSTAGFDPLLTQNVIVTERVICPISSVPGNLAGPTQLRGSHTMLCTEDPCSRLI
Consider B4, for which the binding entry in assay [1] and in assay [2] was “binds” throughout.
